Numbering of substitutions follows the chain as printed. These are yes or no findings as the source states them, for the method shown. Binding seen in cells or lysates may run through a third protein. Some results given as binding are weak or reduced against the parent protein; the word gives no strength. For part of these data: Where a sequence is shown, tags or fusion partners need not be part of it.
Experiments:
Assay in all cases: co-IP; FLAG-KLC2-WT, R312W or L523I transiently expressed in HEK293T; lysis buffer 150 mM NaCl, 50 mM Tris-HCl pH 7.4, 0.5% NP-40 with protease and phosphatase inhibitors; 500-1000 ug lysate protein precipitated with anti-FLAG M2 affinity gel at 4°C overnight; immunoblot
[1] = molecular target: T1, FLAG-tagged KLC2-L523I (human) (UniProt Q9H0B6)
T1 sequence: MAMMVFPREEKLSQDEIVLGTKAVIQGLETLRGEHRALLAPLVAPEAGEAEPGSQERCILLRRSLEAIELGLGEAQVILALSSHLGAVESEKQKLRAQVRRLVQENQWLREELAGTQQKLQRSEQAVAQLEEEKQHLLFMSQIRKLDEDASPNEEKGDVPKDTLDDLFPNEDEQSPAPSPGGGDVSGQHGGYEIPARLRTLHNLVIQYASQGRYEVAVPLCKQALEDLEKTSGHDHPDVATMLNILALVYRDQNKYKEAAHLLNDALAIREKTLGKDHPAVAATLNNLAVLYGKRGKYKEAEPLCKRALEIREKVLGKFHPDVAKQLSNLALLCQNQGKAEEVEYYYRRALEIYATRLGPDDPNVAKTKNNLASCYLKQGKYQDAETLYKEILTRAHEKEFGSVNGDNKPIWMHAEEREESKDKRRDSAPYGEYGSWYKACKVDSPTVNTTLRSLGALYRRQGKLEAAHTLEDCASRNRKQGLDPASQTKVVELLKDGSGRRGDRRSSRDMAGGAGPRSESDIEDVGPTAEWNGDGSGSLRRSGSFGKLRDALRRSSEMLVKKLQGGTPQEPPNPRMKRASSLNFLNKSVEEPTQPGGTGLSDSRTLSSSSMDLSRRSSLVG

The chains behind the UniProt entries cited, without tags or fusion partners.
UniProt Q15796: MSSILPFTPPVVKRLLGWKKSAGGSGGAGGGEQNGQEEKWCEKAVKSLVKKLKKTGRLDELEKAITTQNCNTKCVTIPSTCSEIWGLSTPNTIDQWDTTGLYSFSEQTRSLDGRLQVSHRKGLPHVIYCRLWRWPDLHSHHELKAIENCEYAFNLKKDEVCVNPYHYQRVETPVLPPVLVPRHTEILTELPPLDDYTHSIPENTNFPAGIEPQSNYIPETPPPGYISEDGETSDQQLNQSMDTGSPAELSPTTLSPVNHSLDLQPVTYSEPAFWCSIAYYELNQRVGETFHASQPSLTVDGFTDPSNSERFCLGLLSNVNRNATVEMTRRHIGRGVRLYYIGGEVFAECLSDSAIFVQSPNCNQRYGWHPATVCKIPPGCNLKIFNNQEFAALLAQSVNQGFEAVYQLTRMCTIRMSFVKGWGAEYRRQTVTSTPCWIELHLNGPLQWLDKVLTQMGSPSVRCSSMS

[2] = molecular target: T2, FLAG-tagged KLC2-R312W (human) (UniProt Q9H0B6)
T2 sequence: T1 sequence with R312W, I523L

[3] = molecular target: FLAG-tagged KLC2-WT (kinesin light chain 2, wild type) (human) (UniProt Q9H0B6)

Measured: binding

mothers against decapentaplegic homolog 2 (SMAD2) (from UniProt Q15796 1-467)
binds: [1] | [2] | [3]

Source: PMC12774541
